Reference: PubChem BioAssay AID588497 (NMMLSC, 2011)
Among all 360,000 compounds or so, about 780 (0.22%) were called active. Inconclusive results, whose numbers are uncertain, are shown with a selection of clear calls. Cut-off read from the data, not from the text of the source: active = inhibition above about 35% (passing the limit was not always enough); inconclusive = no clear call, values can overlap the other calls.

system: Botulinum neurotoxin type F light chain protease (Clostridium botulinum); assay: BoNT/F light chain protease inhibitors, primary screen, biochemical, flow cytometry, MLPCN library (AID 588497); settings: Multiplex microsphere protease cleavage assay, at 10 µM, hits give high values; note: plate controls were buffer without enzyme for full effect and enzyme alone for no effect

Structure (SMILES) | inhibition
COc1ccc(-c2cc(=O)n(CCC#N)[nH]2)cc1 | inactive: -5.5%
CCN1CCN(c2nc3c(c(=O)[nH]2)CCC3)CC1 | inconclusive: 6.9%
CC1CC(C)(C)N2C(=O)C(=C(C#N)C#N)c3cccc1c32 (stereo unspecified) | inconclusive: 41.3%
O=C(CNc1ccc2ccccc2c1)N/N=C/c1ccccn1 | inconclusive: -84.7%
COc1cccc(C(=O)Nc2cc(NC(=O)c3cccs3)ccc2C)c1OC | inconclusive: 6.1%
CCOc1cc(/C=C2\C(=N)N3N=C(C)SC3=NC2=O)ccc1OCCOc1ccccc1 | inconclusive: -63.6%
COc1cccc(NC(=S)N2CCN(C)CC2)c1 | inconclusive: -11.4%
CCOc1ccc(CCNC(=O)Cc2ccc(NC3=NC4CS(=O)(=O)CC4S3)cc2)cc1OCC (stereo unspecified) | inactive: 4.5%
Nc1cc(=O)n(Cc2ccccc2)c(=O)n1-c1ccc(F)cc1 | inconclusive: -1.6%
COC(=O)[C@@H](Cc1c[nH]c2ccccc12)NC(=O)c1ccc2c(c1)OCO2 | inconclusive: -10.1%
Cc1[nH]c2ccccc2c1/C=N/NC(=O)c1cccc(Br)c1 | inactive: -62.7%
CCn1c(=O)c(C(=O)Nc2ncccc2O)c(O)c2ccccc21 | inconclusive: 1.4%
CCCS(=O)(=O)c1ccc(COC(=O)Cc2ccc([N+](=O)[O-])cc2)cc1 | inconclusive: -12.1%
O=C(NCc1ccccn1)c1c(Cl)cccc1Cl | inconclusive: -37.9%
COc1cc(/C=C/c2ccc3cccc([N+](=O)[O-])c3n2)ccc1OCC(=O)O | inactive: 4%
CN(C)/C=C/C(=O)c1cnc(-c2cccc(Cl)c2)s1 | active: 42.3%
Cc1cccc(-c2nc(CN3CCN(Cc4cccc(F)c4)CC3)c(C)o2)c1 | inconclusive: 5.8%
Oc1c(Cl)cc(Cl)cc1CNc1ccccn1 | inconclusive: -2.3%
OCCN1C2=NCCCN2c2ccccc21 | inconclusive: 26.7%
COc1ccccc1NC(=O)C(C)OC(=O)c1cccc(-n2cnnn2)c1 (stereo unspecified) | inconclusive: 0.5%
Cc1cc(-c2nc(-c3ccc(C(C)(C)C)cc3)no2)no1 | inconclusive: 22.8%
O=C(C[C@@H]1C/C=C\C[C@H](NC(=O)OCC2c3ccccc3-c3ccccc32)C(=O)OC[C@H]2CCCN2C1=O)NCCO | inactive: -5.8%
COc1ccc(CC(=O)NCC2CCCN(Cc3cccc(SC)c3)C2)cc1 (stereo unspecified) | inconclusive: -26.1%

Rewritten as labelled records: entries from further up
COc1cccc(NC(=S)N2CCN(C)CC2)c1
  inhibition: inconclusive: -11.4%
CCOc1ccc(CCNC(=O)Cc2ccc(NC3=NC4CS(=O)(=O)CC4S3)cc2)cc1OCC (stereo unspecified)
  inhibition: inactive: 4.5%

The results go on.

Structure (SMILES) | inhibition
Cc1ccc(NC(=O)CSc2nc3ccccc3c(=O)n2CCCC(=O)N2CCCC2)cc1 | inactive: -3.3%
C=CCn1cc(/C=C2/NC(=O)NC2=O)c2ccccc21 | inconclusive: 23%
COc1cc(C=C(C#N)c2ccc([N+](=O)[O-])cc2)ccc1O | inactive: 1.1%
CC(=O)Nc1ccc(OCC(O)Cn2nc(C)c(Br)c2C)cc1 (stereo unspecified) | inconclusive: -17.5%
CC(=O)N/C(=C\c1ccccc1)C(=O)OC(C)C(=O)NCc1ccccc1 (stereo unspecified) | inconclusive: -2%
CC(=O)Nc1ccc(NS(=O)(=O)c2ccc3c(c2)oc(=O)n3C)cc1 | inconclusive: 32.3%
Cc1ccc(-c2csc(N=C(N)N)n2)c(C)c1 | inconclusive: -25.5%
CCCOC(=O)COc1cc(C)cc2oc(=O)c3c(c12)CCC3 | inactive: -0.7%
Cc1ccccc1NC(=O)c1cc(S(=O)(=O)Nc2cccc(C(=O)O)c2)ccc1Cl | inconclusive: -11.3%
Cc1cccc(NC(=O)CNC(=O)CN2C(=O)NC3(CCc4ccccc43)C2=O)c1C (stereo unspecified) | inconclusive: -15.1%
CCOC(=O)CC(=O)CSc1ncc(C(=O)OCC)c(N)n1 | active: 134%
CC1(C)CC(=O)N(c2ccc(Cl)cc2Cl)C(=O)C1 | inconclusive: -1.2%
Oc1cc2c(cc1CN1CCc3ccccc3C1)OCO2 | inactive: 0%
COCCNC(=O)CN(C(=O)CCC(=O)Nc1ccccn1)c1ccc(C)c(C)c1 | inconclusive: -29.8%
O=c1[nH]c(SCc2ccc(Cl)cc2)nc2c1CCC2 | inconclusive: -3.6%
Cc1onc(C(=O)Nc2c(C)n(C)n(-c3ccccc3)c2=O)c1[N+](=O)[O-] | inactive: 5.4%
Cc1cccc(-c2noc(CCC(=O)NCCc3ccccc3)n2)c1 | inconclusive: -27.1%
FC(F)(F)c1cccc(Sc2nc(-c3ccccc3)nnc2C(F)(F)F)c1 | inactive: 0.2%
CCN(CC)S(=O)(=O)c1ccc(C)c(C(=O)Oc2cccc(-c3cnc4ccccc4n3)c2)c1 | active: 34.9%
COc1cc(C=O)ccc1Oc1nnnn1-c1ccccc1 | inconclusive: -5.3%
S=C(N/N=C/c1ccccc1Cl)Nc1cccc(Cl)c1Cl | inconclusive: 25.3%
O=[N+]([O-])c1ccc(/C=N\N2CCN(c3ccc(Cl)cc3)CC2)cc1 | inconclusive: -6.9%
COc1ccc(C(=O)Nc2cccc(S(=O)(=O)NC3=NCCCCC3)c2)cc1 | inconclusive: -9.5%
